At least one read-out could not be matched to a standard name with certainty.
Assay: Pharmacokinetics of soluble receptors in female C57B1/6 mice (serum ELISA, noncompartmental analysis)
Type: in vivo, mouse
Conditions: IP, 100 μg
Description: Studies were performed to evaluate the pharmacokinetics of the mouse (IL-27RAm(mFc1)) and human (IL-27RA-Fc5) soluble receptors in female C57B1/6 mice.
Serum was generated from each sample and analyzed by a qualified enzyme-linked immunosorbant assay (ELISA). The resulting mean serum concentration versus time profiles were then subjected to noncompartmental pharmacokinetic analyses. The following pharmacokinetic parameters were calculated: C0 and Cmax (extrapolated concentration at time zero and maximum serum concentration, respectively), Tmax (time to achieve maximum concentration), t1/2 λz (terminal half-life), AUC0-t (area under the concentration versus time curve from time zero to the last measurable time point), AUCINF (area under the concentration versus time curve extrapolated to infinity), C1 or C1/F (clearance or clearance divided by bioavailable fraction, respectively), VSS or VZ/F (steady state volume of distribution or volume of distribution divided by the bioavailable fraction, respectively), and F (bioavailable fraction).

B1: IL-27RAm(mFc1): Extracellular domain of mouse IL27RA fused to a wild type BALB/c mouse gamma2a constant region Fc tag (protein)
chain: MNRLERVALARLETPRLEGLLELELESLEMSLELELEGTRPRHGSPRGPRLEQCYSVGPRLEGILENCSWGLPRLEGDLEGLTPRPRVLEYHQSQKYHPRNRVWGLVKVPRSKQSWVTIPRRGLQFTMADKLELEIWGTQKGRPRLEWSSVSVASNLEGLTQMKPRDTPRQIFSQVASPISGLGLATLEGLATVQWAPRPRVWPRPRQKALETCQFRYKGLCQAGLAWTRLEGLPRQLEKTDGLETPRVGLMQNLEGLPRGTCYQVSGRCQVGLNGYPRWGGLWSSPRLESFQTPRFLEDPRGLDVWVSGTVCGLTSGKRAALELEVWKDPRRPRCVQVTYTVWFGAGDITTTQGLGLVPRCCKSPRVPRAWMGLWAVVSPRGNSTSWVPRPRTNLESLEVCLEAPRGLSAPRCDVGVSSADGSPRGIKVTWKQGTARGSPRLEGLYVVASPWAQDGDSLEDKLENWTRLEPRPRGNLESTLELEPRGGLFKGGVPRYRITVTAVYSGGLEAAAPRSVWGFRGLGLLEVPRLEAGPRAVWRLEPRDDPRPRGTPRVVALAWGGLVPRRHQLERGQATHYTFCIQSRGLESTVCRNVSSQTQTATLEPRNLEHSGSFKLEWVTVSTVALAGQGPRPRGPRDLESLEHLEPRDNRIRWKALEPRWFLESLEWGLELELEMGCGLESLEASTRCLEQARCLEHWRHKLELEPRQWIWGLRVPRDPRANSNSGQPRYIKGLVSLEPRQPRPRKDGPRILEGLVGLGLVGLLEQPRVVGLSPRKASAPRIYSGYGLKHFLEPRTPRGLGLLEGLELEV
modifications: left off: a dimerising Fc or GST
notes: Extracellular domain of mouse IL27RA fused to a wild type BALB/c mouse gamma2a constant region Fc tag
- Vz/F: 7.33 mL
